# Some of the results follow.
# Legend:
# Experiment in all cases: glycan array binding signal (z-score within array); higher = stronger binding
# Conditions in all cases: glycan notation: IUPAC condensed, linker removed
# Gal3S(b1-4)Glc = molecular target: Gal3S(b1-4)Glc
# Method in brief: (§1)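 Columns mapping to the same glycan were averaged after glycan names were converted to IUPAC-condensed notation. The data come from 3228 arrays in the Consortium for Functional Glycomics database, limited to those with an available protein sequence. Binding is reported as a within-array Z-score averaged across arrays of one protein sequence and across linkers.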
# Gal3S(b1-4)Glc6S = molecular target: Gal3S(b1-4)Glc6S
# Method in brief: as §1
# Gal3S(b1-4)GlcNAc = molecular target: Gal3S(b1-4)GlcNAc
# Method in brief: as §1
# [1] = molecular target: Gal3S(b1-4)[Fuc(a1-3)]Glc6S
# Method in brief: as §1
# [2] = molecular target: Gal3S(b1-4)[Fuc(a1-3)]GlcNAc
# Method in brief: as §1
# [3] = molecular target: Gal3S(b1-4)[Fuc(a1-3)]GlcNAc6S
# Method in brief: as §1
# Gal3S4S(b1-4)GlcNAc = molecular target: Gal3S4S(b1-4)GlcNAc
# Method in brief: as §1
# Gal3S6S(b1-4)GlcNAc = molecular target: Gal3S6S(b1-4)GlcNAc
# Method in brief: as §1
# Gal3S6S(b1-4)GlcNAc6S = molecular target: Gal3S6S(b1-4)GlcNAc6S
# Method in brief: as §1
# Gal4S(b1-4)GlcNAc = molecular target: Gal4S(b1-4)GlcNAc
# Method in brief: as §1
# Gal4S6S(b1-4)GlcNAc = molecular target: Gal4S6S(b1-4)GlcNAc
# Method in brief: as §1
# Gal6P(b1-4)GlcNAc = molecular target: Gal6P(b1-4)GlcNAc
# Method in brief: as §1
# Gal6S(b1-3)GlcNAc = molecular target: Gal6S(b1-3)GlcNAc
# Method in brief: as §1
# Gal6S(b1-3)GlcNAc6S = molecular target: Gal6S(b1-3)GlcNAc6S
# Method in brief: as §1
# Gal6S(b1-4)Glc = molecular target: Gal6S(b1-4)Glc
# Method in brief: as §1
# Gal6S(b1-4)Glc6S = molecular target: Gal6S(b1-4)Glc6S
# Method in brief: as §1
# Gal6S(b1-4)GlcNAc = molecular target: Gal6S(b1-4)GlcNAc
# Method in brief: as §1
# Gal6S(b1-4)GlcNAc6S = molecular target: Gal6S(b1-4)GlcNAc6S
# Method in brief: as §1
# GalNAc(a1-3)Gal = molecular target: GalNAc(a1-3)Gal
# Method in brief: as §1
# GalNAc(a1-3)GalNAc = molecular target: GalNAc(a1-3)GalNAc
# Method in brief: as §1
# [4] = molecular target: GalNAc(a1-3)GalNAc(b1-3)Gal(a1-4)Gal(b1-4)Glc
# Method in brief: as §1
# [5] = molecular target: GalNAc(a1-3)GalNAc(b1-3)Gal(a1-4)Gal(b1-4)GlcNAc
# Method in brief: as §1
# GalNAc(b1-3)Gal = molecular target: GalNAc(b1-3)Gal
# Method in brief: as §1
# [6] = molecular target: GalNAc(b1-3)Gal(a1-4)Gal(b1-4)GlcNAc
# Method in brief: as §1
# [7] = molecular target: GalNAc(b1-3)Gal(a1-4)Gal(b1-4)GlcNAc(b1-3)Gal(b1-4)Glc
# Method in brief: as §1
# [8] = molecular target: GalNAc(b1-3)Gal(a1-6)Gal(b1-4)Glc
# Method in brief: as §1
# GalNAc(b1-3)GalNAc = molecular target: GalNAc(b1-3)GalNAc
# Method in brief: as §1
# GalNAc(b1-3)GlcNAc = molecular target: GalNAc(b1-3)GlcNAc
# Method in brief: as §1
# GalNAc(b1-4)Gal(b1-4)Glc = molecular target: GalNAc(b1-4)Gal(b1-4)Glc
# Method in brief: as §1
# GalNAc(b1-4)GlcNAc = molecular target: GalNAc(b1-4)GlcNAc
# Method in brief: as §1
# [9] = molecular target: GalNAc(b1-4)GlcNAc(b1-2)Man
# Method in brief: as §1
# [10] = molecular target: GalNAc(b1-4)GlcNAc(b1-2)Man(a1-3)[GalNAc(b1-4)GlcNAc(b1-2)Man(a1-6)]Man(b1-4)GlcNAc(b1-4)GlcNAc
# Method in brief: as §1
# [11] = molecular target: GalNAc(b1-4)GlcNAc(b1-3)GalNAc(b1-4)GlcNAc
# Method in brief: as §1
# GalNAc(b1-4)GlcNAc6S = molecular target: GalNAc(b1-4)GlcNAc6S
# Method in brief: as §1
# GalNAc(b1-6)GalNAc = molecular target: GalNAc(b1-6)GalNAc
# Method in brief: as §1
# GalNAc3S(b1-4)GlcNAc = molecular target: GalNAc3S(b1-4)GlcNAc
# Method in brief: as §1
# GalNAc3S(b1-4)GlcNAc3S = molecular target: GalNAc3S(b1-4)GlcNAc3S
# Method in brief: as §1
# [12] = molecular target: GalNAc3S(b1-4)[Fuc(a1-3)]GlcNAc
# Method in brief: as §1
# GalNAc4S6S(b1-4)GlcNAc = molecular target: GalNAc4S6S(b1-4)GlcNAc
# Method in brief: as §1
# GalNAc6S(b1-4)GlcNAc = molecular target: GalNAc6S(b1-4)GlcNAc
# Method in brief: as §1
# Glc(a1-4)Glc = molecular target: Glc(a1-4)Glc
# Method in brief: as §1
# [13] = molecular target: Glc(a1-4)Glc(a1-4)Glc(a1-4)Glc
# Method in brief: as §1
# Glc(a1-6)Glc(a1-6)Glc = molecular target: Glc(a1-6)Glc(a1-6)Glc
# Method in brief: as §1
# [14] = molecular target: Glc(a1-6)Glc(a1-6)Glc(a1-6)Glc
# Method in brief: as §1
# Glc(b1-4)Glc = molecular target: Glc(b1-4)Glc
# Method in brief: as §1
# Glc(b1-6)Glc = molecular target: Glc(b1-6)Glc
# Method in brief: as §1
# GlcA(b1-3)Gal = molecular target: GlcA(b1-3)Gal
# Method in brief: as §1
# GlcA(b1-3)GlcNAc = molecular target: GlcA(b1-3)GlcNAc
# Method in brief: as §1
# GlcA(b1-6)Gal = molecular target: GlcA(b1-6)Gal
# Method in brief: as §1
# [15] = molecular target: GlcA3S(b1-3)Gal(b1-4)GlcNAc(b1-2)Man
# Method in brief: as §1
# [16] = molecular target: GlcA3S(b1-3)Gal(b1-4)GlcNAc(b1-3)Gal(b1-4)Glc
# Method in brief: as §1
# [17] = molecular target: GlcNAc(a1-3)Gal(b1-4)GlcNAc
# Method in brief: as §1
# [18] = molecular target: GlcNAc(a1-4)Gal(b1-3)GlcNAc
# Method in brief: as §1
# [19] = molecular target: GlcNAc(a1-4)Gal(b1-4)GalNAc
# Method in brief: as §1
# [20] = molecular target: GlcNAc(a1-4)Gal(b1-4)GlcNAc
# Method in brief: as §1
# [21] = molecular target: GlcNAc(a1-4)Gal(b1-4)GlcNAc(b1-3)Gal(b1-4)Glc
# Method in brief: as §1
# [22] = molecular target: GlcNAc(a1-4)Gal(b1-4)GlcNAc(b1-3)Gal(b1-4)GlcNAc
# Method in brief: as §1
# [23] = molecular target: GlcNAc(a1-4)Gal(b1-4)GlcNAc(b1-3)Gal(b1-4)GlcNAc(b1-3)Gal(b1-4)GlcNAc
# Method in brief: as §1
# [24] = molecular target: GlcNAc(a1-4)Gal(b1-4)GlcNAc(b1-3)Gal(b1-4)[Fuc(a1-3)]GlcNAc(b1-3)Gal(b1-4)[Fuc(a1-3)]GlcNAc
# Method in brief: as §1
# [25] = molecular target: GlcNAc(a1-6)Gal(b1-4)GlcNAc
# Method in brief: as §1
binder,measurement,setting,value
"Thrombomodulin Extracellular (Mus musculus), P15306 (protein) MLGIFFLGVLAPASLGLSALAKLQPTGSQCVEHECFALFQGPATFLDASQACQRLQGHLMTVRSSVAADVISLLLSQSSMDLGPWIGLQLPQGCDDPVHLGPLRGFQWVTGDNHTSYSRWARPNDQTAPLCGPLCVTVSTATEAAPGEPAWEEKPCETETQGFLCEFYFTASCRPLTVNTRDPEAAHISSTYNTPFGVSGADFQTLPVGSSAAVEPLGLELVCRAPPGTSEGHWAWEATGAWNCSVENGGCEYLCNRSTNEPRCLCPRDMDLQADGRSCARPVVQSCNELCEHFCVSNAEVPGSYSCMCETGYQLAADGHRCEDVDDCKQGPNPCPQLCVNTKGGFECFCYDGYELVDGECVELLDPCFGSNCEFQCQPVSPTDYRCICAPGFAPKPDEPHKCEMFCNETSCPADCDPNSPTVCECPEGFILDEGSVCTDIDECSQGECFTSECRNFPGSYECICGPDTALAGQISKDCDPIPVREDTKEEEGSGEPPVSPTPGSPTGPPSARPVHSGVLIGISIASLSLVVALLALLCHLRKKQGAARAELEYKCASSAKEVVLQHVRTDRTLQKF",glycan array binding signal (z-score),Gal3S(b1-4)Glc,-0.554
same,glycan array binding signal (z-score),Gal3S(b1-4)Glc6S,0.532
same,glycan array binding signal (z-score),Gal3S(b1-4)GlcNAc,0.121
same,glycan array binding signal (z-score),[1],2.97
same,glycan array binding signal (z-score),[2],-0.408
same,glycan array binding signal (z-score),[3],-0.144
same,glycan array binding signal (z-score),Gal3S4S(b1-4)GlcNAc,0.564
same,glycan array binding signal (z-score),Gal3S6S(b1-4)GlcNAc,0.604
same,glycan array binding signal (z-score),Gal3S6S(b1-4)GlcNAc6S,1.78
same,glycan array binding signal (z-score),Gal4S(b1-4)GlcNAc,-1.12
same,glycan array binding signal (z-score),Gal4S6S(b1-4)GlcNAc,-1.03
same,glycan array binding signal (z-score),Gal6P(b1-4)GlcNAc,-0.241
same,glycan array binding signal (z-score),Gal6S(b1-3)GlcNAc,0.451
same,glycan array binding signal (z-score),Gal6S(b1-3)GlcNAc6S,-1.12
same,glycan array binding signal (z-score),Gal6S(b1-4)Glc,0.205
same,glycan array binding signal (z-score),Gal6S(b1-4)Glc6S,0.336
same,glycan array binding signal (z-score),Gal6S(b1-4)GlcNAc,-1.42
same,glycan array binding signal (z-score),Gal6S(b1-4)GlcNAc6S,-0.624
same,glycan array binding signal (z-score),GalNAc(a1-3)Gal,-0.153
same,glycan array binding signal (z-score),GalNAc(a1-3)GalNAc,0.289
same,glycan array binding signal (z-score),[4],-0.533
same,glycan array binding signal (z-score),[5],0.21
same,glycan array binding signal (z-score),GalNAc(b1-3)Gal,-0.358
same,glycan array binding signal (z-score),[6],-0.153
same,glycan array binding signal (z-score),[7],0.558
same,glycan array binding signal (z-score),[8],-0.793
same,glycan array binding signal (z-score),GalNAc(b1-3)GalNAc,1.8
same,glycan array binding signal (z-score),GalNAc(b1-3)GlcNAc,-0.126
same,glycan array binding signal (z-score),GalNAc(b1-4)Gal(b1-4)Glc,3.27
same,glycan array binding signal (z-score),GalNAc(b1-4)GlcNAc,1.12
same,glycan array binding signal (z-score),[9],-0.804
same,glycan array binding signal (z-score),[10],0.181
same,glycan array binding signal (z-score),[11],1.79
same,glycan array binding signal (z-score),GalNAc(b1-4)GlcNAc6S,-0.286
same,glycan array binding signal (z-score),GalNAc(b1-6)GalNAc,-1.51
same,glycan array binding signal (z-score),GalNAc3S(b1-4)GlcNAc,-0.723
same,glycan array binding signal (z-score),GalNAc3S(b1-4)GlcNAc3S,0.643
same,glycan array binding signal (z-score),[12],-0.675
same,glycan array binding signal (z-score),GalNAc4S6S(b1-4)GlcNAc,-0.595
same,glycan array binding signal (z-score),GalNAc6S(b1-4)GlcNAc,1.27
same,glycan array binding signal (z-score),Glc(a1-4)Glc,0.367
same,glycan array binding signal (z-score),[13],0.993
same,glycan array binding signal (z-score),Glc(a1-6)Glc(a1-6)Glc,-0.105
same,glycan array binding signal (z-score),[14],-0.226
same,glycan array binding signal (z-score),Glc(b1-4)Glc,-0.067
same,glycan array binding signal (z-score),Glc(b1-6)Glc,-0.947
same,glycan array binding signal (z-score),GlcA(b1-3)Gal,-0.28
same,glycan array binding signal (z-score),GlcA(b1-3)GlcNAc,-0.862
same,glycan array binding signal (z-score),GlcA(b1-6)Gal,1.18
same,glycan array binding signal (z-score),[15],-0.44
same,glycan array binding signal (z-score),[16],-0.979
same,glycan array binding signal (z-score),[17],-0.816
same,glycan array binding signal (z-score),[18],0.594
same,glycan array binding signal (z-score),[19],-0.931
same,glycan array binding signal (z-score),[20],-0.555
same,glycan array binding signal (z-score),[21],-0.323
same,glycan array binding signal (z-score),[22],-1.19
same,glycan array binding signal (z-score),[23],2.52
same,glycan array binding signal (z-score),[24],0.795
same,glycan array binding signal (z-score),[25],-1.28

# 3 entries from above, bar-delimited.
binder | measurement | setting | value
Thrombomodulin Extracellular (Mus musculus), P15306 (protein) MLGIFFLGVLAPASLGLSALAKLQPTGSQCVEHECFALFQGPATFLDASQACQRLQGHLMTVRSSVAADVISLLLSQSSMDLGPWIGLQLPQGCDDPVHLGPLRGFQWVTGDNHTSYSRWARPNDQTAPLCGPLCVTVSTATEAAPGEPAWEEKPCETETQGFLCEFYFTASCRPLTVNTRDPEAAHISSTYNTPFGVSGADFQTLPVGSSAAVEPLGLELVCRAPPGTSEGHWAWEATGAWNCSVENGGCEYLCNRSTNEPRCLCPRDMDLQADGRSCARPVVQSCNELCEHFCVSNAEVPGSYSCMCETGYQLAADGHRCEDVDDCKQGPNPCPQLCVNTKGGFECFCYDGYELVDGECVELLDPCFGSNCEFQCQPVSPTDYRCICAPGFAPKPDEPHKCEMFCNETSCPADCDPNSPTVCECPEGFILDEGSVCTDIDECSQGECFTSECRNFPGSYECICGPDTALAGQISKDCDPIPVREDTKEEEGSGEPPVSPTPGSPTGPPSARPVHSGVLIGISIASLSLVVALLALLCHLRKKQGAARAELEYKCASSAKEVVLQHVRTDRTLQKF | glycan array binding signal (z-score) | [1] | 2.97
same | glycan array binding signal (z-score) | [2] | -0.408
same | glycan array binding signal (z-score) | [3] | -0.144
